This note sets out measurements from PubChem BioAssay AID493014 (National Center for Advancing Translational Sciences (NCATS), 2011).

The assay can be described thus: qHTS Assay to Find Inhibitors of Chronic Active B-Cell Receptor Signaling. Particulars: ABC-DLBCL IkBa-CBG/CBR reporter, luminescence ratio (green luciferase fused to IkBa over red control in TMD8 lymphoma cells), 4 h. In outline: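 Doxycycline induced both beetle luciferases in TMD8 lymphoma cells; IKK-driven degradation limits the IkappaBalpha-fused green signal, while red luminescence normalises for cell number and nonspecific effects. Compounds tested up to 46 uM, 4 hrs.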
On the technique in general: qHTS replaces the single test concentration by a dilution series.

[1] abbreviates: measured here: CBR red luminescence, cell number.
Setting [2] is: measured here: IkBa-CBG green luminescence.

Structures are written as SMILES. This is one part of the list. Further columns of the screen follow, without active or inactive calls. Compounds called inactive in the main read-out are mostly missing here. The note in brackets gives the kind of curve behind each potency; many fits are weak.

What is called AC50 is the concentration giving half of the maximal activity seen. As for `COc1cc(C#Cc2c(-c3cncn3C)n(C)c3ccc(-c4ccc(OC)c(OC)c4)cc23)cc(OC)c1`, the AC50 under setting [1] was 2.91 µM [falling, full curve].
The same measure, in the same setting: the same measure for `O=C(Nc1ccc(-c2nc3ccccc3s2)cc1)c1cc(-n2cnnc2)ccc1Cl`: 35.5 µM [rising, single point]; for `O=C(NCc1ccccn1)C(=O)Nc1ccccc1`: 6.31 µM [falling, partial curve]; for `Nc1c(C(=O)CSc2ncccn2)c(=O)[nH]c(=O)n1C1CC1`: 29.1 µM [rising, single point].
Same read-out and setting: the same measure for `CC(C)CC1NC(=O)N(CC(=O)N2CCN(S(=O)(=O)c3ccc4ccccc4c3)CC2)C1=O` (stereo not given): 29.1 µM [rising, single point]; for `COc1ccc2[nH]cc(CCNC(=O)Nc3ccccc3)c2c1`: 3.98 µM [rising, full curve, poor fit].
Still for that read-out and setting: the same measure for `CCOc1ccccc1CN1CCN(Cc2cccc3nonc23)CC1CCO` (stereo not given): 6.31 µM [falling, single point]; for `O=C(N/N=C/c1ccc(N2CCCCC2)o1)c1ccccc1`: 8.2 µM [falling, partial curve]; for `CC(C)c1ccc(NC(=O)NCc2cccnc2)cc1`: 0.316 µM [rising, full curve, poor fit].
In the case of `O=C(NCCN1CCOCC1)c1cc(-c2ccc(F)cc2)on1`, under setting [1], the concentration at half-maximal activity (AC50) was 7.08 µM [falling, full curve].
On the same count and under the same terms, the same measure for `COc1ccc(C(O)(c2ccccc2OC)C(CN2CCOCC2)c2ccccc2)cc1` (stereo not given): 14.1 µM [falling, single point]; for `CCn1c(SCc2nc3ccccc3c(=O)[nH]2)nc2ccccc2c1=O`: 32.6 µM [rising, single point]; for `CSc1nc(N)nc2c1ncn2CC(=O)N[C@H](C)c1cccc2ccccc12`: 18.4 µM [falling, partial curve, poor fit].
On the same count and under the same terms, the same measure for `O=C(CSc1nc(Nc2ccccc2)nc(N2CCOCC2)n1)Nc1ccc([N+](=O)[O-])cc1`: 16.4 µM [falling, single point].
On to `O=C(c1cccc(F)c1)N1CCN(Cc2c[nH]c3ccccc23)CC1`, for which the concentration at half-maximal activity (AC50) under setting [1] was 1 µM [falling, full curve, poor fit].
Take `COc1cc(/C=N/N(c2ccccc2)c2ccccc2)ccc1O`: the AC50 under setting [1] was 11.2 µM [falling, partial curve].
The same measure, in the same setting: the same measure for `O=C1CCC(C(=O)N2CCN(c3ccc(F)cc3)CC2)CN1CC1CCCCC1` (stereo not given): 35.5 µM [falling, single point]; for `COc1ccc(C(=O)NCCc2nnc3ccc(SCC(=O)Nc4ccccc4)nn23)cc1`: 35.5 µM [falling, single point].
In the case of `CC(C)(C)c1ccc(S(=O)(=O)NCC(=O)Nc2sc3c(c2C(N)=O)CCCC3)cc1`, the concentration at half-maximal activity (AC50) under setting [1] is 6.51 µM [rising, single point].
Turning to `CSc1n[nH]c(-c2ccc(C(F)(F)F)cc2)n1`, under setting [1], the half-maximal activity concentration (AC50) is 3.98 µM [rising, full curve, poor fit].
As to `COC(=O)CCS(=O)(=O)c1nc(-c2ccccc2)cc(C(F)(F)F)n1`, the AC50 is, setting by setting: under setting [1], 5.8 µM [falling, full curve, poor fit]; under setting [2], 5.17 µM [rising, full curve, poor fit].
For the molecule `CCOC(=O)N1CCN(S(=O)(=O)c2ccc(F)c(C(=O)Nc3ccc(C(C)C)cc3)c2)CC1`, the AC50 under setting [1] was 32.6 µM [falling, single point].
On the same count and under the same terms, the same measure for `O=C(c1ccc(-c2nc3ccccc3s2)s1)N1CCOCC1`: 12.6 µM [falling, single point].
The same measure, in the same setting: with `CCOC(=O)CSc1nc(C)cc2c1C(=O)OC2` the figure was 17.8 µM [falling, partial curve, poor fit].
Turning to `COc1cc(C(=O)NC(C)C2CC3CCC2C3)ccc1OC(F)F` (stereo not given), the concentration at half-maximal activity (AC50) under setting [1] was 2.59 µM [rising, partial curve, poor fit].
Same read-out and setting: with `O=C(Cn1nc(CNc2ccc(Br)cc2)[n+]2c1CCCCC2)c1ccc([N+](=O)[O-])cc1` the figure was 7.08 µM [rising, full curve, poor fit]; with `CCN(CC)c1ccc(C=NCCNS(=O)(=O)c2ccc(C)cc2)cc1`, 10 µM [falling, partial curve, poor fit]; with `Cn1ccc(C(=O)NC(=S)N2CCSCC2)n1`, 6.31 µM [rising, single point].
With `CCN(CC)Cc1ccccc1CNC(=O)c1cccc(S(=O)(=O)Nc2ccc3c(c2)OCO3)c1`, the AC50 under setting [2] is 18.4 µM [falling, partial curve, poor fit].
Consider `COc1ccc(/C=N/Nc2nncc3ccccc23)cc1`, for which, under setting [1], the half-maximal activity concentration (AC50) was 29.1 µM [falling, single point].
Regarding `NC(=O)C1CC(=O)N(c2ccc(OCc3ccc(F)cc3)cc2)C1` (stereo not given), under setting [1], the concentration at half-maximal activity (AC50) is 6.31 µM [falling, single point].
On the same count and under the same terms, with `COc1ccc(-n2c(SCC(=O)N3CCCC(C)C3)nnc2-c2cccnc2)cc1` (stereo not given) the figure was 11.2 µM [rising, partial curve, poor fit]; with `COc1cc2nc(NCC3CCCO3)n3nc(-c4cccnc4)nc3c2cc1OC` (stereo not given), 0.0731 µM [rising, full curve, poor fit]; with `CCN(CC)C(=O)Cn1cc(C(=O)C(=O)NCc2ccccn2)c2ccccc21`, 5.01 µM [falling, partial curve].
Still for that read-out and setting: with `O=C(Cn1nnc2ccccc2c1=O)NCCc1ccc(F)cc1` the figure was 0.058 µM [rising, full curve, poor fit]; with `CCCCC(=O)Nc1cccc(-c2cn3ccsc3n2)c1`, 3.16 µM [rising, partial curve].
Same read-out and setting: with `O=C(Nc1nc(-c2ccccn2)cs1)c1ccccc1-n1cnnn1` the figure was 35.5 µM [falling, single point]; with `O=C(CNC(=O)c1ccc(Cl)cc1)OCc1nc2ccccc2s1`, 1.3 µM [falling, full curve, poor fit]; with `COc1ccccc1N=C1NC(=O)/C(=C/c2ccc(N(C)C)cc2)S1`, 1.12 µM [falling, partial curve].
As for `c1ccc(-c2cnc(CSc3nnc4ccccn34)o2)cc1`, under setting [1], the half-maximal activity concentration (AC50) was 18.4 µM [falling, single point].
For the molecule `Cc1ccc(S(=O)(=O)Cc2ccc(C(=O)NCCCN3CCN(C)CC3)o2)cc1`, the half-maximal activity concentration (AC50) under setting [1] is 23.1 µM [rising, single point].
Still for that read-out and setting: the same measure for `CCCn1c2ccccc2c2cnn(CC(=O)NCCOC)c(=O)c21`: 3.55 µM [rising, single point].
For the molecule `COc1ccc(-c2cc(C(=O)NC(Cc3cc4ccccc4[nH]3)C(=O)O)c(C)o2)cc1OC` (stereo not given), under setting [2], the AC50 was 2.82 µM [rising, full curve].
Regarding `Cc1nc(/N=C(\N)NC(=O)c2ccccc2)nc2ccccc12`, under setting [1], the AC50 is 0.0517 µM [falling, full curve].
Consider `N#CCC(=O)N/N=C/c1ccc(OCC(=O)Nc2ccc(F)cc2)cc1`, for which the concentration at half-maximal activity (AC50) under setting [1] was 11.2 µM [rising, partial curve, poor fit].
Same read-out and setting: the same measure for `CCCCn1nc(C(=O)Nc2cccc(C(=O)NC3CC3)c2)c2ccccc2c1=O`: 29.1 µM [falling, single point]; for `O=C(NCc1cccs1)c1cc2ccccc2o1`: 10 µM [falling, partial curve].
The same measure, in the same setting: the same measure for `CC(O)CNc1nc2c(c(=O)n(C)c(=O)n2C)n1Cc1cccc(Br)c1` (stereo not given): 35.5 µM [falling, single point]; for `CCCN(CCC)CCNC(=O)C1CCN(Cc2nc(-c3ccc(Cl)cc3)oc2C)CC1`: 11.2 µM [falling, partial curve, poor fit]; for `CCOc1ccc(N=NC2C(=O)N(C(N)=S)N=C2C)cc1` (stereo not given): 22.4 µM [rising, single point].
Regarding `CCNS(=O)(=O)c1ccc(NC(=O)c2ccccc2OCC)cc1`, the concentration at half-maximal activity (AC50) under setting [1] was 1.64 µM [rising, partial curve, poor fit].
On the same count and under the same terms, the same measure for `CC(=O)Nc1cccc(C(=O)N/N=C/c2cccc(C)n2)c1`: 35.5 µM [falling, single point]; for `COc1ccccc1NS(=O)(=O)c1cccc(C(=O)NCC(c2ccco2)N2CCCC2)c1` (stereo not given): 5.8 µM [falling, single point]; for `COc1ccc(-c2nc(SCc3ccccc3)n(C(=O)c3ccco3)n2)cc1`: 8.2 µM [rising, partial curve, poor fit].
On the same count and under the same terms, with `COc1cc(/C=N/Nc2nc(-c3ccc(S(=O)(=O)N(C)C)cc3)cs2)ccc1O` the figure was 8.91 µM [falling, partial curve, poor fit].
The same measure, in the same setting: with `Cc1ccc(C)c(NS(=O)(=O)c2cc(C(=O)N3CCc4ccccc4C3)ccc2Cl)c1` the figure was 11.2 µM [falling, single point].
With `NC(=O)CCC(NC(=S)Nc1ccccc1)C(=O)O` (stereo not given), the concentration at half-maximal activity (AC50) under setting [1] is 14.1 µM [rising, partial curve, poor fit].
Same read-out and setting: the same measure for `CCC(=O)c1ccc(OCC(=O)Nc2nc(C)cs2)cc1`: 13 µM [falling, single point]; for `COc1ccc(C(=S)N2CCOCC2)cc1OS(=O)(=O)c1ccccc1[N+](=O)[O-]`: 29.1 µM [rising, partial curve, poor fit]; for `O=C(NC1CCCCC1)N1CCN(c2ccccc2)CC1`: 23.1 µM [falling, partial curve].
Same read-out and setting: the same measure for `O=C1NC(c2ccccc2)=C(c2nc3ccccc3s2)C(c2ccc(F)cc2)N1` (stereo not given): 11.2 µM [falling, partial curve].
Turning to `CCSc1nc2nn(-c3ccccc3)c(=O)c-2c2n1CCCCC2`, the AC50 under setting [1] is 0.092 µM [falling, full curve, poor fit].
Same read-out and setting: with `CC(=O)c1sc(NC(=O)C2CCN(C(=O)c3ccc(F)cc3)CC2)nc1-c1ccccc1` the figure was 1.3 µM [falling, partial curve, poor fit]; with `CCn1c2ccccc2c2cc(NC(=O)CSc3nnc(-c4ccccc4)o3)ccc21`, 29.1 µM [rising, single point].
